# Results published in PubChem BioAssay AID540276 (National Center for Advancing Translational Sciences (NCATS), 2011).
# Hit rate of the full screen: of about 300,000 compounds, about 5,400 (1.8%) were called active. Inconclusive means that the source gave no clear call. Such entries were picked first, then a sample of the others. The call rests on the fitted dose curve; tested in HEK293 cells. Where the call is inconclusive, the potency comes from a doubtful curve fit.
# Assay: qHTS for inhibitors of binding or entry into cells for Marburg Virus
# Conditions: Marburg virus pseudotyped entry inhibition, cell reporter; activity change, negative = inhibition: at 37.8 µM (top of the series) unless noted
# On the % scale 0 is the no-effect control and ±100 the full control effect; potency means the concentration at half of the fitted maximal effect.
SMILES,Potency,"activity change, negative = inhibition"
O=C(Nc1ccccc1CC[N+](=O)[O-])N1CCN(c2ccccc2)CC1,active: 10 µM,–
Cc1cc(Nc2ncc(Cl)cc2Cl)n(-c2ccccc2C)n1,"inconclusive: 35.5 µM [inhibitor, single point]",–
N/C(=N\OC(=O)COc1ccc(Cl)cc1Br)c1cccnc1,–,inactive: -16.6% [at 46.1 µM]
Cc1ccc(C(=O)O/N=C(\N)c2ccc(Br)cc2)cc1C,–,inactive: 22.2%
CCN(CC)c1ccc(C(=O)OCC(=O)N2CCCC2)cc1,"inconclusive: 12.6 µM [activator, partial curve, poor fit]",–
COc1ccccc1OP(=O)(Nc1cccnc1)Oc1ccccc1OC,"inconclusive: 6.31 µM [inhibitor, single point]",–
O=C(CSCc1cccc(F)c1)N1CCN(c2ccccc2)CC1,–,inactive: 10.5%
COC(=O)C(CCSC)NC(=O)CNS(=O)(=O)c1ccc(Br)cc1 (stereo unspecified),–,inactive: 2.32%
COC(=O)c1sc(NC(=O)c2oc3ccccc3c2C)nc1C,–,inactive: 0.37%
CO/N=C/CC(=O)c1cnc(-c2ccccc2)s1,"inconclusive: 6.31 µM [activator, partial curve, poor fit]",–
c1ccc(Nc2nnc(-c3cccnc3)s2)cc1,"inconclusive: 1.26 µM [activator, single point]",–
CCOC(=O)c1sc(NC(=O)CSc2nnnn2-c2ccccc2)nc1C,–,inactive: 14%
Nc1nnc(SCc2cn3cc(Cl)ccc3n2)s1,"inconclusive: 3.55 µM [activator, partial curve, poor fit]",–
NC(CCC(=O)O)C12CC3CC(CC(C3)C1)C2 (stereo unspecified),"inconclusive: 15.8 µM [activator, single point]",–
CCN(CC)C(=S)SCC(=O)Nc1ncc2c(n1)CCCC2=O,–,inactive: -7.67% [at 46.1 µM]
Cc1ccc(OCC(=O)N2CCN(C)CC2)c(Br)c1,–,inconclusive: 36% [activator]
Cc1cc(C(=O)N/N=C2\CCCC(=O)C2)c(C)n1-c1ccccc1,"inconclusive: 35.5 µM [inhibitor, single point]",–
CC(C)Oc1ccc(C(=O)OCC(=O)c2ccc[nH]2)cc1,"inconclusive: 2.51 µM [activator, partial curve]",–
CN(CC(=O)Nc1ccc(Cl)c(C(F)(F)F)c1)C(=O)Cc1ccsc1,"inconclusive: 11.2 µM [inhibitor, single point]",–
Cc1ccc2cc(CCNC(=O)c3ccc(S(=O)(=O)N4CCCCC4)cc3)c(=O)[nH]c2c1,"inconclusive: 11.2 µM [inhibitor, partial curve, poor fit]",–
C/C(CCc1ccccc1)=N\NC(=O)CCc1ccccc1,"inconclusive: 0.316 µM [inhibitor, partial curve, poor fit]",–

# Random excerpt: 2 entries already listed.
SMILES,Potency,"activity change, negative = inhibition"
CC(C)Oc1ccc(C(=O)OCC(=O)c2ccc[nH]2)cc1,"inconclusive: 2.51 µM [activator, partial curve]",–
O=C(Nc1ccccc1CC[N+](=O)[O-])N1CCN(c2ccccc2)CC1,active: 10 µM,–
